Experimental data reported in patent publication US7718598 (dated 2010).
Several values for one entry are separate records, joined by “and”; a condition that tells them apart may be missing. Identical values can stand only once. For some assays here: Where a sequence shows no end group, the ends are not given.

Columns and labels:
[1] = general procedure: Fmoc solid-phase peptide synthesis; Wang resin; trityl resin; HBTU/DIEA; BOP/DIEA for cyclisation; details: for isolated yield: whole synthesis, scale of the general procedure 0.1 mmole (STAT-91)
[2] = general procedure: Fmoc solid-phase peptide synthesis; trityl resin; HBTU/DIEA; BOP/DIEA for cyclisation; details: whole synthesis
[3] = general procedure: Fmoc solid-phase peptide synthesis; Wang resin; HBTU/DIEA; BOP/DIEA for cyclisation; details: whole synthesis
[4] = Fmoc solid-phase peptide synthesis; Fmoc-Val-Wang resin; HBTU/DIEA; BOP/DIEA for cyclisation; details: whole synthesis, scale 0.1 mmole

“N-(2-hydroxy-6-nitrobenzyl)-Ala-Phe-Leu-Pro-Ala-OH” showed an isolated yield [1] of 63% yield and an isolated mass [2] of 85 mg.

Work on “N-(2-hydroxy-5-nitrobenzyl)-Ala-Phe-Leu-Pro-Ala-OH” yielded an isolated yield [1] of 85% yield and an isolated mass [2] of 114 mg.

With HS—(CH2)2-Ala-Phe-Leu-Pro-Ala-OH the isolated yield [1] was 22% yield and the isolated mass [3] was 25 mg.

cyclo-[(HnB)Tyr-Arg Phe-Gly] gave a cyclisation yield ([1]; cyclisation step) of 40%.

For cyclo(YRFG), the difficulty met ([1]; late stage modification step) was “Photolysis of this product in MeOH/AcOH was slow and yielded impure cyclo[Tyr-Arg-Phe-Gly]” and the step yield ([1]; late stage modification step, photol. step) was 41%.

In the case of TGYIKTELISV, the difficulty met [4] is reported as “no appreciable amount (<1%) of the target”.

For cyclo(AFLPA), the outcome ([1]; cyclisation step) was “only cyclic dimer and some trimer were obtained, but no target monocyclic product” and the step yield ([1]; late stage modification step, run 1) was 52% and 28%.

With HS—(CH2)2-Tyr-Arg-Phe-Gly-OH the isolated yield [1] was 45% yield and the isolated mass [3] was 70 mg.
